In the supplement of paper PMC10849652:
The other results are listed elsewhere or left out.

By UniProt entry, the sequences of proteins in these tests, tags left out. Where a name states a change or a piece, a line headed by the entry shows the natural chain unless it says otherwise.
UniProt I6L899: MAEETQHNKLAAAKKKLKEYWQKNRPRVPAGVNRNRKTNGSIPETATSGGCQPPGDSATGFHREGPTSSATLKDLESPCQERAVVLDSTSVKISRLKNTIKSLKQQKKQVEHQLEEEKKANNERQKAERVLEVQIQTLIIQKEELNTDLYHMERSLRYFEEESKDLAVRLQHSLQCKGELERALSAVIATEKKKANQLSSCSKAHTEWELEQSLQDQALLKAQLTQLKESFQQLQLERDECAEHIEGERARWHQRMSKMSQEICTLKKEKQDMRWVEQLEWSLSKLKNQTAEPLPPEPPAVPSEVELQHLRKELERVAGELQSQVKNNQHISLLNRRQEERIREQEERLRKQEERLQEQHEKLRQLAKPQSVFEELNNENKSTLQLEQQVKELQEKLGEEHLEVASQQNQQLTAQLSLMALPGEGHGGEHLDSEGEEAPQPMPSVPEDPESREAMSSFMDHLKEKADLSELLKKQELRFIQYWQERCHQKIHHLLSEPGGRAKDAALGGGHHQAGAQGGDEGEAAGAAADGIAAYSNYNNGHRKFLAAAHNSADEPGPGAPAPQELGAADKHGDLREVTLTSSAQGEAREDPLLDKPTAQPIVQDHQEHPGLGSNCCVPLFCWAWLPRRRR
UniProt Q96D09: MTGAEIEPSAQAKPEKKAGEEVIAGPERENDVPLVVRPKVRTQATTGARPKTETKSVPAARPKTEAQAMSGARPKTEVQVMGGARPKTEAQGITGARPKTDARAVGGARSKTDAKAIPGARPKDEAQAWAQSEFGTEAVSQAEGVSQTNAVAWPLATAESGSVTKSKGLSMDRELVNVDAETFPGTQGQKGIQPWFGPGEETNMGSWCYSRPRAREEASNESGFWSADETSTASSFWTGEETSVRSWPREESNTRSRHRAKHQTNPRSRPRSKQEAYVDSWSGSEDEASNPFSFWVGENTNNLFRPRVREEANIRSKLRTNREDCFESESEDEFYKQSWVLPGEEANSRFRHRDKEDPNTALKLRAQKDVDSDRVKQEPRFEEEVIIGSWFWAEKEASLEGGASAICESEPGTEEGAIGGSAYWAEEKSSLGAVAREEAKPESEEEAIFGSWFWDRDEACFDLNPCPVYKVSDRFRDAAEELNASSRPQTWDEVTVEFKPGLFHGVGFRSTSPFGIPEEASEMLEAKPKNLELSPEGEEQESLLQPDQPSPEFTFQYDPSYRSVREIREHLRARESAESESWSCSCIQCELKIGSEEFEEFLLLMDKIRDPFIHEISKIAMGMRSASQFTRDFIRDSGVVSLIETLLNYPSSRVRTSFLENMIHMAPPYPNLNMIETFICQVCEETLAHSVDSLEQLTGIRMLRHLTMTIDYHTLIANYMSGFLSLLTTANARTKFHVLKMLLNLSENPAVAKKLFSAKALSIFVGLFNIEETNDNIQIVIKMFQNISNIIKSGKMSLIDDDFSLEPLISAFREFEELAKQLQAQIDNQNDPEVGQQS
UniProt Q5JWF2, whole entry, looked up: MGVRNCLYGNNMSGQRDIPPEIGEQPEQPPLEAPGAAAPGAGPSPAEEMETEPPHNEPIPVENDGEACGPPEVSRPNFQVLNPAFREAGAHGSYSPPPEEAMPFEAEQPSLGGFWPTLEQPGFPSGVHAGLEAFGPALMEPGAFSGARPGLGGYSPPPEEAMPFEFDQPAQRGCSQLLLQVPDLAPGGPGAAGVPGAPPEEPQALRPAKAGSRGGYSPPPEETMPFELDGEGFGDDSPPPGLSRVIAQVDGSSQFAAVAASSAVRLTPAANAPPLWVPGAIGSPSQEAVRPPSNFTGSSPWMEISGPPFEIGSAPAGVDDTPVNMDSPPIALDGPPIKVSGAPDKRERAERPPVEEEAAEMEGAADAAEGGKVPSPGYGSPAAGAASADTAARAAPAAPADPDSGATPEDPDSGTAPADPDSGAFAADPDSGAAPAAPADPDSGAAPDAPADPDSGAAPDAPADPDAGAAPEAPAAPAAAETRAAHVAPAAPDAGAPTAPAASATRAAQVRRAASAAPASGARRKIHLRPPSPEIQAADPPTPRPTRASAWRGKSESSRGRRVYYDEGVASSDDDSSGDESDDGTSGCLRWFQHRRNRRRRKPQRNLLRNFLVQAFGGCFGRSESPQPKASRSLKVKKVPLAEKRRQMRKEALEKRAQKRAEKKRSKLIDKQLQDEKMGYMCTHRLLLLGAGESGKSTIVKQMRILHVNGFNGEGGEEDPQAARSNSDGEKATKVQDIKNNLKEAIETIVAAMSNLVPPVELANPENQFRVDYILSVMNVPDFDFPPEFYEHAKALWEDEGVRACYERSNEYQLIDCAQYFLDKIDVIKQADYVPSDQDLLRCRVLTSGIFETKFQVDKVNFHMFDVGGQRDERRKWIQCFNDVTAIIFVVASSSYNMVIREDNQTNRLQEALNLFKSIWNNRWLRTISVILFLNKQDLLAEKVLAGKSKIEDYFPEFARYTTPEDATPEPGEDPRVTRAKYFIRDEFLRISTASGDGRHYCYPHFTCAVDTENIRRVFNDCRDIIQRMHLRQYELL
UniProt Q9NZD2: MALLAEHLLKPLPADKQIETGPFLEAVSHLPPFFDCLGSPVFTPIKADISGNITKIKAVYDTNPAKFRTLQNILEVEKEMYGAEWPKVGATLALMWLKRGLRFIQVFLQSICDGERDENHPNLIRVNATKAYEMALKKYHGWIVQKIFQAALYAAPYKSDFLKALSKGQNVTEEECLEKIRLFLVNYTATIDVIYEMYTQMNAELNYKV
UniProt Q15743: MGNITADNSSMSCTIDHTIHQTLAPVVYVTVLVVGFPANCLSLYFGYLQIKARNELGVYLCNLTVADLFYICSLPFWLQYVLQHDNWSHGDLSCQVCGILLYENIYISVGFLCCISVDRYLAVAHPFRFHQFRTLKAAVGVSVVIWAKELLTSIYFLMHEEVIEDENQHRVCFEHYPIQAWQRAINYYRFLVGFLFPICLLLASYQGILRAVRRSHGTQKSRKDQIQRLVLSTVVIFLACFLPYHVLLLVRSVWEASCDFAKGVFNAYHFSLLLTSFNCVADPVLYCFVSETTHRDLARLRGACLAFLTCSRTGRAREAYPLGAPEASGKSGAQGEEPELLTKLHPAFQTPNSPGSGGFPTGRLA
UniProt Q9HAV0, whole entry, looked up: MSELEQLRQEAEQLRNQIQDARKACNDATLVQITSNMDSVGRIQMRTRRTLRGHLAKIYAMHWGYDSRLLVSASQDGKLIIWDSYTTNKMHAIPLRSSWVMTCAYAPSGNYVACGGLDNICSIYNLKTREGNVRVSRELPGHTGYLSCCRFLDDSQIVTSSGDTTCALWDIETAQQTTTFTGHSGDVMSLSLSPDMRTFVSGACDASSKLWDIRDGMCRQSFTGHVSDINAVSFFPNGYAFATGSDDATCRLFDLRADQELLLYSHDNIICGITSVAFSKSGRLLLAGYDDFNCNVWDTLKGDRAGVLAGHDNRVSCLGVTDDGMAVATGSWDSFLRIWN
UniProt Q5VSY0: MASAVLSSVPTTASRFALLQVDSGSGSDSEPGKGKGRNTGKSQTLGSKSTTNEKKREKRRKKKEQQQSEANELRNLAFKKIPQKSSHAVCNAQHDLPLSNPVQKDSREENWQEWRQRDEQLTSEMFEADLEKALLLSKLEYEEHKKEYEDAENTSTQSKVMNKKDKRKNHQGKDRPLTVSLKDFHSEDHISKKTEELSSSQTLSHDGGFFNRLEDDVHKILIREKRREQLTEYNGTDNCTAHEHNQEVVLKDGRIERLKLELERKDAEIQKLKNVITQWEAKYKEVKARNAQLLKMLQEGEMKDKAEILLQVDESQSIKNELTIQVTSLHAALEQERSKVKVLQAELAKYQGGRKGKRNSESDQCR
UniProt Q9NU53: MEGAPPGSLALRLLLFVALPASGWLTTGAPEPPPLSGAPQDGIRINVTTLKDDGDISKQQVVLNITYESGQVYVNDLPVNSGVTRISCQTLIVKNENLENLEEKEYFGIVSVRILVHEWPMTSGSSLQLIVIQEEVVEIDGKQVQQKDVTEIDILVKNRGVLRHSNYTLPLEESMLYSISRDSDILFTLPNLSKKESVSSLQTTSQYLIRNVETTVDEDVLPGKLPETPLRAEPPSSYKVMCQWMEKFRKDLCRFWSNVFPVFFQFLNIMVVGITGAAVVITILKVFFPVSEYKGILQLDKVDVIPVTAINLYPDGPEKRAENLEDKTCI
UniProt Q3T8J9: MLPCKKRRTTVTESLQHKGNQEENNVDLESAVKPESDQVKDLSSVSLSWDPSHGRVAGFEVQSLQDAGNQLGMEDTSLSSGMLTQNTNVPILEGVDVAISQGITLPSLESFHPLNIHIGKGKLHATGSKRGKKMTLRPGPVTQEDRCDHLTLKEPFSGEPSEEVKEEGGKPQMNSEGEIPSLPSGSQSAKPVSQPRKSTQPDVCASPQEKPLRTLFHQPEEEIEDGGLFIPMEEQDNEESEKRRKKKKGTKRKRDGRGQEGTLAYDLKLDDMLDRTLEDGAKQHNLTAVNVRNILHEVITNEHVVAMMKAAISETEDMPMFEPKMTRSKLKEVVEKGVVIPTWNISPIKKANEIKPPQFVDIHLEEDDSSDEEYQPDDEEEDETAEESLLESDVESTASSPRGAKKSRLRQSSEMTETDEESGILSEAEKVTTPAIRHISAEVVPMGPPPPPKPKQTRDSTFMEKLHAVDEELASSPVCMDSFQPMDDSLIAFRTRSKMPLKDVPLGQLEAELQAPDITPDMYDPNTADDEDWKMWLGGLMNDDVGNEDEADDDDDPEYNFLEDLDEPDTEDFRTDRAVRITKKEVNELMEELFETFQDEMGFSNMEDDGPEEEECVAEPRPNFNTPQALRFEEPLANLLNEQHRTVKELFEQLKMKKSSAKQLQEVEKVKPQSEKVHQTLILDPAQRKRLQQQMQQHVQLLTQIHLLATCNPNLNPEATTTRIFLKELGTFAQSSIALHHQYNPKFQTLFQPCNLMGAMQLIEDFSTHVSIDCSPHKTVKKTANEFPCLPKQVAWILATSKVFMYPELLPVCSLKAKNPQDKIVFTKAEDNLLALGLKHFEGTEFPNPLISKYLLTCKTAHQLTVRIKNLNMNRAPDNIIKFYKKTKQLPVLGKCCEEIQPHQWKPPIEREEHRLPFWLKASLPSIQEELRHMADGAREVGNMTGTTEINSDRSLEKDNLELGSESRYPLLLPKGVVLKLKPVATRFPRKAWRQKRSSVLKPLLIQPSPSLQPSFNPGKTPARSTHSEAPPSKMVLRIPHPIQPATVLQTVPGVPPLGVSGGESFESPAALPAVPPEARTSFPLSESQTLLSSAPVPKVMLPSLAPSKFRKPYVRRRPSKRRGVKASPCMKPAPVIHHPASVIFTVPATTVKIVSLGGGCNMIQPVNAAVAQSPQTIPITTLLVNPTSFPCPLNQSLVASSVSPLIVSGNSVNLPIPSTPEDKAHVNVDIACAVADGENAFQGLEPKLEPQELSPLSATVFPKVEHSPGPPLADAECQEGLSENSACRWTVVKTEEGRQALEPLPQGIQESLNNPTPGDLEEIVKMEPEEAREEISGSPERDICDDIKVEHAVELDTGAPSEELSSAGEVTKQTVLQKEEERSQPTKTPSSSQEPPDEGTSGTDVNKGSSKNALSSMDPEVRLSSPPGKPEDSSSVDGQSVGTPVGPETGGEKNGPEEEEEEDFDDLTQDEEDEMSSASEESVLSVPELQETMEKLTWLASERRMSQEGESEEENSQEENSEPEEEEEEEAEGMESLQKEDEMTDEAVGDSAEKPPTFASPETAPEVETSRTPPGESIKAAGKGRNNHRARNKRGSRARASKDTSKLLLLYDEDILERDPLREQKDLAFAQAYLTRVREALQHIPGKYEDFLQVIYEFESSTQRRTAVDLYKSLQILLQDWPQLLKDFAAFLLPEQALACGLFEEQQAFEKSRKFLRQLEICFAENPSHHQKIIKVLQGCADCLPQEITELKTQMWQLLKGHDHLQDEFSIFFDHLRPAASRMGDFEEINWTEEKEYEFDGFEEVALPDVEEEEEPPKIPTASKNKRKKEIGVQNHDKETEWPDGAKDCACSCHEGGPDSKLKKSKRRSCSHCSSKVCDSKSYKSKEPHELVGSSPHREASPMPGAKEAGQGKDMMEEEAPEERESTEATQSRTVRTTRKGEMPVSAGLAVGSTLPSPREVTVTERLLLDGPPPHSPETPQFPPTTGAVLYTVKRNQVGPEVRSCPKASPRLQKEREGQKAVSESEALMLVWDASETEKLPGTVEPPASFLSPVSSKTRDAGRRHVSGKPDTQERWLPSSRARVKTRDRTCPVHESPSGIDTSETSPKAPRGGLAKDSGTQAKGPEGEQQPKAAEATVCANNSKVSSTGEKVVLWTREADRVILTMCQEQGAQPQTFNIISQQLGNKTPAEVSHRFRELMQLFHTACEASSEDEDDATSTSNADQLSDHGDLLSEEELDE

Columns and labels:
Assay in all cases: log2 fold change, soluble protein after heating vs DMSO (PISA); higher = thermal stabilisation; K562 lysate, 10 uM; active = over 0.2 and 3.5 SD of the protein, either way, in both replicates (recomputed)
erlotinib = compound: C#Cc1cccc(Nc2ncnc3cc(OCCOC)c(OCCOC)cc23)c1 [erlotinib]
Procedure, shortened: (§1)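 K562 pellets were dounce-homogenised in PBS pH 7.4 containing 1 mM MgCl2, and the crude extract, at 1 mg/mL protein, was exposed to 10 μM compound for 30 min. Aliquots were heated for 3 min across 48°C-58°C, pooled, brought to 0.5% NP-40 at 4°C and spun at 21,000xg for 90 min, with the supernatant taken as soluble protein. TMTpro 16plex LC-MS/MS with equalised channel sums quantified that protein. Values are log-two fold changes in thermal stability relative to solvent controls, taken from duplicates.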

[1] = compound: C1=CC(=CC=C1C2=NC3=C(N2)C=C(C=C3)C(=O)N)OC4=CC=C(C=C4)Cl
Procedure, shortened: as §1

[2] = compound: C1=CC2=NC=CN=C2C=C1/C=C/3\C(=O)NC(=O)S3
Procedure, shortened: as §1

[3] = compound: C1=CC=C(C=C1)C2=NC(=C(N2)C3=CC=NC=C3)C4=CC(=C(C=C4)Cl)O
Procedure, shortened: as §1

IRAK-1-4 Inhibitor I = compound: C1COCCN1CCN2C3=CC=CC=C3N=C2NC(=O)C4=CC(=CC=C4)[N+](=O)[O-] [IRAK-1-4 Inhibitor I]
Procedure, shortened: as §1

ibrutinib = compound: C=CC(=O)N1CCC[C@@H](n2nc(-c3ccc(Oc4ccccc4)cc3)c3c(N)ncnc32)C1 [ibrutinib]
Procedure, shortened: as §1

[4] = compound: CC(=O)c1cnc2ccc(-c3cc(Cl)c(O)c(Cl)c3)nc2c1N[C@H]1CC[C@H](CN(C)C)CC1
Procedure, shortened: as §1

ralimetinib = compound: CC(C)(C)Cn1c(N)nc2ccc(-c3[nH]c(C(C)(C)C)nc3-c3ccc(F)cc3)nc21 [ralimetinib]
Procedure, shortened: as §1

[5] = compound: CC(C)(O)CC(=O)NCCn1ccc2ncnc(Nc3ccc(Oc4cccc(C(F)(F)F)c4)c(Cl)c3)c21
Procedure, shortened: as §1

[6] = compound: CC(C)C1=C2N=C(C=C(N2N=C1)NCC3=CC=CC=C3)NCCCCCCN
Procedure, shortened: as §1

[7] = compound: CC1=C(C(CC(=O)N1)C2=CC=C(C=C2)C(F)(F)F)C(=O)NC3=C(C=C4C(=C3)C=NN4)F
Procedure, shortened: as §1

[8] = compound: CC1=C(C2=C(C=C1)C(=O)C3=CC=CC=C3N2CCCN)C
Procedure, shortened: as §1

[9] = compound: CC1=C(C=C(C=C1)NC(=O)C2=CC(=CC=C2)C(C)(C)C#N)NC3=CC4=C(C=C3)N=CN(C4=O)C
Procedure, shortened: as §1

[10] = compound: CC1=C(C=C(C=C1)NC(=O)C2=CC(=CC=C2)N(C)C)NC(=O)C3=CC=C(C=C3)O
Procedure, shortened: as §1

[11] = compound: CC1=CC=C(C=C1)SC2=C3C=C(SC3=CN=C2)C(=O)N
Procedure, shortened: as §1

[12] = compound: C/C(=N\NC(=O)C1=CC(=CC=C1)S(=O)(=O)N2CCOCC2)/C3=C(C=CC(=C3)Cl)O
Procedure, shortened: as §1

[13] = compound: C1=CC2=C(C=CC(=C2)/C=C\3/C(=O)NC(=NCC4=CC=CS4)S3)N=C1
Procedure, shortened: as §1

[14] = compound: C1=CC=C2C(=C1)C3=NNC4=CC=CC(=C43)C2=O
Procedure, shortened: as §1

[15] = compound: C1CCN(C1)C(=O)NC2=CC=CC(=C2)NC3=NC=C(C(=N3)NCCC4=CN=CN4)Br
Procedure, shortened: as §1

[16] = compound: C1CN(CCC1(CC2=CC=C(C=C2)Cl)N)C3=NC=NC4=C3C=CN4
Procedure, shortened: as §1

Measured: log2 fold change

GOLGA8R (UniProt I6L899)
inactive: erlotinib 0.061 | [1] 0.143 | [2] -0.039 | [3] 0.078 | IRAK-1-4 Inhibitor I 0.113 | ibrutinib -0.049 | [4] -0.159 | ralimetinib -0.171 | [5] -0.134 | [6] 0.049 | [7] -0.048 | [8] -0.253 | [9] 0.284 | [10] 0.009 | [11] 0.023

GPAM (UniProt Q9HCL2)
inactive: [3] -0.09 | IRAK-1-4 Inhibitor I 0.017 | ralimetinib 0.034 | [5] 0.004 | [10] -0.066

GLDC (UniProt P23378)
inactive: [2] 0.088 | ibrutinib -0.163

GPRASP2 (UniProt Q96D09)
inactive: [12] -0.015 | [13] -0.075 | [2] 0.071 | [3] -0.008 | [14] 0.061 | [15] -0.115 | [16] 0.048 | IRAK-1-4 Inhibitor I 0.111 | ibrutinib 0.1 | ralimetinib -0.072 | [5] -0.123 | [7] 0.02 | [10] -0.17

GNAS isoform 3 (UniProt P63092)
inactive: erlotinib 0 | [1] 0.165 | [4] 0.033 | [6] -0.143 | [9] 0.006 | [11] 0.01

GOLGB1 isoform 4 (UniProt Q14789)
inactive: [3] 0.022 | IRAK-1-4 Inhibitor I -0.086 | ralimetinib -0.054 | [5] -0.049 | [8] -0.064 | [10] 0.049

GNAS isoform 2 (UniProt Q5JWF2)
inactive: [2] 0.009 | ibrutinib 0.027

GOLGA4 (UniProt Q13439)
inactive: erlotinib -0.023 | [12] -0.02 | [1] -0.013 | [13] 0.117 | [2] -0.181 | [3] -0.001 | [14] -0.147 | [15] 0.103 | [16] -0.186 | IRAK-1-4 Inhibitor I 0.103 | ibrutinib -0.145 | ralimetinib 0.133 | [5] -0.046 | [6] 0.039 | [7] 0.184 | [8] -0.049 | [9] 0.079 | [10] -0.013

GLTP (UniProt Q9NZD2)
inactive: erlotinib -0.029 | [12] 0.024 | [1] -0.003 | [13] -0.015 | [2] -0.107 | [3] -0.049 | [14] 0.001 | [15] 0.013 | [16] 0.068 | IRAK-1-4 Inhibitor I 0.017 | ibrutinib 0.079 | [4] 0.006 | ralimetinib -0.002 | [5] -0.079 | [6] 0.028 | [8] -0.069 | [9] 0.084 | [10] 0.033 | [11] -0.048

Two entries drawn at random from those above:
GNAS isoform 3 (UniProt P63092)
inactive: erlotinib 0 | [1] 0.165 | [4] 0.033 | [6] -0.143 | [9] 0.006 | [11] 0.01

GLTP (UniProt Q9NZD2)
inactive: erlotinib -0.029 | [12] 0.024 | [1] -0.003 | [13] -0.015 | [2] -0.107 | [3] -0.049 | [14] 0.001 | [15] 0.013 | [16] 0.068 | IRAK-1-4 Inhibitor I 0.017 | ibrutinib 0.079 | [4] 0.006 | ralimetinib -0.002 | [5] -0.079 | [6] 0.028 | [8] -0.069 | [9] 0.084 | [10] 0.033 | [11] -0.048

The list goes on.

GPR68 (UniProt Q15743)
inactive: [9] 0.113

GPATCH3 (UniProt Q96I76)
inactive: erlotinib -0.006 | [1] 0.002 | [3] 0.099 | IRAK-1-4 Inhibitor I 0.163 | ralimetinib -0.107 | [5] -0.126 | [6] -0.012 | [9] 0.005 | [10] 0.005

GNB4 (UniProt Q9HAV0)
inactive: erlotinib -0.017 | [1] 0.067 | [2] -0.049 | [3] -0.057 | [15] -0.035 | [16] -0.005 | IRAK-1-4 Inhibitor I -0.024 | ibrutinib -0.104 | [4] -0.071 | ralimetinib 0.009 | [5] -0.026 | [6] 0 | [7] -0.05 | [8] -0.036 | [9] 0.073 | [10] 0.084 | [11] 0.202

GPR180 (UniProt Q86V85)
inactive: [9] 0.212

GLCE (UniProt O94923)
inactive: erlotinib 0.041 | [1] 0.006 | [2] -0.041 | [3] -0.002 | [15] -0.156 | [16] 0.043 | IRAK-1-4 Inhibitor I -0.012 | ibrutinib 0.018 | [4] 0.004 | ralimetinib 0.018 | [5] -0.051 | [6] -0.091 | [7] 0.177 | [8] -0.051 | [9] -0.025 | [10] -0.111 | [11] -0.005

GKAP1 (UniProt Q5VSY0)
inactive: [9] 0.08

GINM1 (UniProt Q9NU53)
inactive: erlotinib 0.218 | [1] -0.013 | [6] 0.144 | [7] -0.091 | [9] 0.262

GNAI3 (UniProt P08754)
inactive: erlotinib 0.058 | [12] 0.076 | [1] 0.011 | [13] 0.03 | [2] 0.034 | [3] 0.01 | [14] -0.001 | [15] 0.055 | [16] -0.007 | IRAK-1-4 Inhibitor I 0.013 | ibrutinib 0.027 | [4] -0.023 | ralimetinib -0.001 | [5] 0.005 | [6] -0.056 | [7] 0.046 | [8] -0.022 | [9] 0.036 | [10] 0.039 | [11] -0.032

GNA12 (UniProt Q03113)
inactive: [12] -0.357 | [13] -0.226 | [2] -0.003 | [3] 0.071 | [14] -0.187 | [15] -0.04 | [16] -0.144 | IRAK-1-4 Inhibitor I 0.038 | ibrutinib -0.034 | [4] 0.03 | ralimetinib -0.033 | [5] -0.023 | [8] -0.041 | [9] 0.03 | [10] 0.101 | [11] 0.002

GON4L (UniProt Q3T8J9)
inactive: erlotinib -0.003 | [12] 0.016 | [1] 0.061 | [13] -0.038 | [2] -0.074 | [3] 0.053 | [14] 0.057 | [15] 0.026 | [16] -0.052 | IRAK-1-4 Inhibitor I -0.039 | ibrutinib 0.026 | [4] 0.022 | ralimetinib 0.029 | [5] -0.042 | [6] -0.04 | [7] -0.02 | [8] -0.017 | [9] 0.01 | [10] 0.002 | [11] -0.044

GPNMB (UniProt Q14956)
inactive: [2] -0.141 | ibrutinib -0.07 | [4] -0.375 | [7] -0.072 | [8] -0.229 | [9] 0.739 | [11] -0.17

GPN2 (UniProt Q9H9Y4)
inactive: erlotinib -0.022 | [12] 0.089 | [1] 0.032 | [13] 0.043 | [3] -0.041 | [14] -0.056 | [16] -0.062 | IRAK-1-4 Inhibitor I -0.027 | [4] -0.022 | ralimetinib 0.12 | [5] 0.028 | [6] -0.042 | [7] 0.036 | [8] 0.025 | [9] 0.067 | [10] 0.057 | [11] 0.019
active: [15] -0.241
